In patent publication US20110112012A1 (UNIVERSITY OF GEORGIA STUDIES RESEARCH FOUNDATION, published 2011):
These are yes or no findings as the source states them, for the method shown. Some binding calls cover weakened binding; strength is not graded here.

T1: Cry4Ba toxin (Cry4BRA mutant, R203 replaced by A) of Bacillus thuringiensis israelensis (Bacillus thuringiensis israelensis) (UniProt P05519)
T1 sequence: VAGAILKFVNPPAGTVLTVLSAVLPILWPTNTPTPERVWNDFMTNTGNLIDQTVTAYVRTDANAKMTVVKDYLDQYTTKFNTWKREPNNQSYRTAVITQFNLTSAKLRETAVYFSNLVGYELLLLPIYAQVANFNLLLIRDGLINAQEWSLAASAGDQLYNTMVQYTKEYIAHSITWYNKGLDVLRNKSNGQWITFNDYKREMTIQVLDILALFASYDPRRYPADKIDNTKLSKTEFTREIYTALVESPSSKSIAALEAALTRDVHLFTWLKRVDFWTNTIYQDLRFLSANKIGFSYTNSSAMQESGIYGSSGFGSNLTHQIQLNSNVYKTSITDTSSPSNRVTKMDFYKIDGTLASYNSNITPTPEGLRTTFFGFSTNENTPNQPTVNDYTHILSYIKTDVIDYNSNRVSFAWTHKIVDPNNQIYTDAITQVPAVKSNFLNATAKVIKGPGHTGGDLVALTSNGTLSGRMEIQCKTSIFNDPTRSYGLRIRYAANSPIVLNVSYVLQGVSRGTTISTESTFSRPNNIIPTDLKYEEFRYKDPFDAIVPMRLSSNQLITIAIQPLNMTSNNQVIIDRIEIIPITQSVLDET


Target: T1, Cry4Ba toxin (Cry4BRA mutant, R203 replaced by A) of Bacillus thuringiensis israelensis (Bacillus thuringiensis israelensis)
Assay: microplate ELISA, Cry4Ba coated, biotinylated fragment

Binder | binding
CR9-11 fragment of AgCad1, expressed in E. coli (Biotinylated for the microplate assay; also called AgCad CR9-11; AgCad-CR9-11) GSPLPKFEAIDDDGGIYGDVTFSLTSTNDGEQDHEVFRVDKVDNKTGLLVLENSLAVQPFPKNYSITVIARDGGDRQSEAAIHVVFINMTGEPAFLEPTFDTDFTENEEGRDERRQLPFAEDPKNAGLPPGAETNVYYFIDKTYGNASHLFQLDRVSNVLQLAQLLDREEIPTPEIRIVATNNENSPPDTVLESSPSLLVVRIKVNDVNDNPPVFQQRLYAAGITTNDRVPKALFRVYAEDPDEDEIIRYELVNGTAVGENLQTDGLPFRLHPDSGELTLTSKVQPNQNGYYQLTLIAFDRDDTHNDTVPAKVYIVSESNRVTFVF | binds
CR11-MPED peptide of AgCad1 (amino acids 1358G to 1569A), expressed in E. coli (Biotinylated with sulfo-NHS-PC-biotin for the microplate assay; also called AgCad CR11-MPED; AgCad-CR11-MPED) GITTNDRVPKALFRVYAEDPDEDEIIRYELVNGTAVGENLQTDGLPFRLHPDSGELTLTSKVQPNQNGYYQLTLIAFDRDDTHNDTVPAKVYIVSESNRVTFVFLNSVEEIDQPDVRKFLAQELTGAYEMECNIDDIDQTTASDGRQAGGSSSALTDVRTHFIQDNQAVEASRIQQRSSNRTFVTVLKTTLRTRGLSLQDVPPLATEALTEA | binds
